Taken from: PubChem BioAssay AID743454 (Peter MacCallum Cancer Centre, 2014)
The whole screen tested about 18,000 reagents; shown is a part drawn at random. 450 of all reagents (2.5%) were called active. 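Single biological run; no consistent viability z cut-off exists, so the class columns, not z-scores, define the calls.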

Purpose: 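Knock-downs lowering viability or raising caspase 3/7 activity in vorinostat-treated resistant cells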 (primary screen)
System: human HCT116-VR colon cancer cells, selected for vorinostat resistance
Reagent: siRNA pool against human genes, 40 nM siRNA pool
Timing: vorinostat for 24 h, read-out about 72 h after transfection
Conditions: vorinostat at 2.5 µM final
Measured: 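Two measures, CellTiter-Fluor viability and luminescent caspase 3/7 activity, each as fold change against same-plate mock wells, mean of duplicates, then screen-wide robust z-score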
Reading the numbers: viability robust z-score: higher = more viable cells than screen typical; caspase robust z-score: higher = more caspase 3/7 activity than screen typical
Active means: 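a knock-down is a hit when classed RV1 or RV2 for lowered viability, or CA1 or CA2 for caspase activation; those lethal without drug were dropped; hits were retested singly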

Against LAIR2 (GeneID 3904) [SID134315666], the values are viability hit class no change; caspase hit class no change; viability robust z-score -0.68; caspase robust z-score 0.09; inactive.
After knock-down of CIMAP1C (GeneID 161753) [SID152148786], the record shows viability hit class no change; caspase hit class no change; viability robust z-score 0.47; caspase robust z-score 0.68; inactive.
SLC52A1 (GeneID 55065) [SID135621994] scored viability hit class no change; caspase hit class no change; viability robust z-score 1.3; caspase robust z-score 0.31; inactive.
CYP24A1 (GeneID 1591) [SID152152084] scored viability hit class no change; caspase hit class no change; viability robust z-score -0.64; caspase robust z-score 0.13; inactive.
Depletion of KRTAP8-1 (GeneID 337879) [SID135623436] came out at: viability hit class no change; caspase hit class no change; viability robust z-score 1.22; caspase robust z-score -0.02; inactive.
With knock-down of MYH7B (GeneID 57644) [SID152154450] the results were viability hit class no change; caspase hit class no change; viability robust z-score 0.32; caspase robust z-score 0.79; inactive.
For PLA2G5 (GeneID 5322) [SID152152765], the entry reads viability hit class no change; caspase hit class no change; viability robust z-score 0.02; caspase robust z-score 2.66; inactive.
After knock-down of QTMAN (GeneID 79712) [SID135622733] the results were viability hit class no change; caspase hit class no change; viability robust z-score -1.04; caspase robust z-score -0.28; inactive.
Against WIF1 (GeneID 11197) [SID152155923], the entry reads viability hit class no change; caspase hit class no change; viability robust z-score 0.28; caspase robust z-score 1.98; inactive.
After knock-down of ZNF16 (GeneID 7564) [SID134317026], the screen gave viability hit class no change; caspase hit class no change; viability robust z-score -1.02; caspase robust z-score 3.93; inactive.
For BEND2 (GeneID 139105) [SID152155771] the deposit lists viability hit class no change; caspase hit class no change; viability robust z-score 0.41; caspase robust z-score -0.68; inactive.
Against PCDH7 (GeneID 5099) [SID134313689] the deposit lists viability hit class no change; caspase hit class no change; viability robust z-score -0.84; caspase robust z-score -0.6; inactive.
Knock-down of ZNF521 (GeneID 25925) [SID134318151] gave: viability hit class no change; caspase hit class no change; viability robust z-score -0.42; caspase robust z-score 0.34; inactive.
NFU1 (GeneID 27247) [SID135624008] scored viability hit class no change; caspase hit class no change; viability robust z-score 0.84; caspase robust z-score 0.16; inactive.

Records above whose gene name starts with C or c:
CIMAP1C (GeneID 161753) [SID152148786]: viability hit class = no change; caspase hit class = no change; viability robust z-score = 0.47; caspase robust z-score = 0.68; call = inactive
CYP24A1 (GeneID 1591) [SID152152084]: viability hit class = no change; caspase hit class = no change; viability robust z-score = -0.64; caspase robust z-score = 0.13; call = inactive
